PubChem BioAssay AID652259 – Drosophila RNAi Screening Center, 2013
The screen tested about 22,000 reagents; shown is an unselected part of those that have a named target and a result. In the full data, 233 (1.1%) are marked active. 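Light values are raw, unnormalised plate reads; the ratio scores behind the reporter calls were not deposited.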 Unmarked entries are inactive. Not stated in the record: the amount of reagent, the time to read-out, the dose of the treatment.

- Aim: 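Genome-wide hunt for genes that control Wingless pathway activity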 (primary screen)
- Cells: Drosophila clone 8 imaginal disc epithelial cells
- Reagent: long dsRNA against Drosophila genes
- Treatment: pathway stimulated by co-transfected Wingless expression plasmid
- Measurement: 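Dual luciferase reads per well after Wingless plasmid stimulation: reporter firefly light and Renilla control light; activity is firefly divided by Renilla, a ratio not deposited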
- Scale: firefly reporter light: higher = more Wg reporter light, before normalisation; Renilla control light: higher = more transfected or surviving cells
- Hit rule: 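Strong candidates differ from their plate mean by at least two out of four per-plate statistical tests; weak candidates meet just one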
- Meaning of the calls: active = candidate regulator (raises or lowers reporter); inactive = not a candidate

Knock-down of CG18538 [DRSC06765] resulted in: firefly reporter light, replicate 1 = 7595; Renilla control light, replicate 1 = 2359. Hrd3 [DRSC14156] showed firefly reporter light, replicate 1 = 2756; firefly reporter light, replicate 2 = 5512; Renilla control light, replicate 1 = 1222; Renilla control light, replicate 2 = 1549. After knock-down of Patronin [DRSC06756], the screen gave firefly reporter light, replicate 1 = 5789; Renilla control light, replicate 1 = 2338. Against Patronin [DRSC06757] the deposit lists firefly reporter light, replicate 1 = 7366; Renilla control light, replicate 1 = 2119. For Patronin [DRSC06994], the entry reads firefly reporter light, replicate 1 = 6065; Renilla control light, replicate 1 = 2488. Knock-down of CG12479 [DRSC19459] came out at: firefly reporter light, replicate 1 = 15936; Renilla control light, replicate 1 = 7600.

Silencing of Gbs-70E [DRSC11055] resulted in: firefly reporter light, replicate 1 = 7949; Renilla control light, replicate 1 = 3138. CG9663 [DRSC00724] showed firefly reporter light, replicate 1 = 9530; Renilla control light, replicate 1 = 4087. Naa30B [DRSC08245] gave firefly reporter light, replicate 1 = 3713; Renilla control light, replicate 1 = 2464. After knock-down of CG34408 [DRSC17733], the record shows firefly reporter light, replicate 1 = 3376; firefly reporter light, replicate 2 = 6634; Renilla control light, replicate 1 = 1019; Renilla control light, replicate 2 = 2492. Knock-down of CG34408 [DRSC21926] came out at: firefly reporter light, replicate 1 = 6.20e5; firefly reporter light, replicate 2 = 6.23e5; Renilla control light, replicate 1 = 77271; Renilla control light, replicate 2 = 97477. Against ro [DRSC17046] the deposit lists firefly reporter light, replicate 1 = 4707; Renilla control light, replicate 1 = 2025.

After knock-down of CG31371 [DRSC15079] the results were firefly reporter light, replicate 1 = 6997; Renilla control light, replicate 1 = 2577. With knock-down of tau [DRSC14569], the screen gave firefly reporter light, replicate 1 = 14611; Renilla control light, replicate 1 = 2712. Against RpS19b [DRSC15773], the values are firefly reporter light, replicate 1 = 19907; Renilla control light, replicate 1 = 16777. With knock-down of superdeath [DRSC14868], the record shows firefly reporter light, replicate 1 = 2537; Renilla control light, replicate 1 = 780. Against CG15125 [DRSC06547] the deposit lists firefly reporter light, replicate 1 = 7209; Renilla control light, replicate 1 = 2309.

Records above whose gene name begins with R or r (2):
ro [DRSC17046]: firefly reporter light, replicate 1 = 4707; Renilla control light, replicate 1 = 2025
RpS19b [DRSC15773]: firefly reporter light, replicate 1 = 19907; Renilla control light, replicate 1 = 16777

Continued:
For CG12995 [DRSC19515], the entry reads firefly reporter light, replicate 1 = 19250; Renilla control light, replicate 1 = 7408. Against CG11594 [DRSC08207] the deposit lists firefly reporter light, replicate 1 = 5254; Renilla control light, replicate 1 = 2344. CG5835 [DRSC15886] gave firefly reporter light, replicate 1 = 11856; Renilla control light, replicate 1 = 3254. Silencing of CG9040 [DRSC11053] gave: firefly reporter light, replicate 1 = 3288; Renilla control light, replicate 1 = 1206. pHCl-2 [DRSC14306] showed firefly reporter light, replicate 1 = 9092; Renilla control light, replicate 1 = 3418. For CG9254 [DRSC01969], the values are firefly reporter light, replicate 1 = 3283; firefly reporter light, replicate 2 = 9752; Renilla control light, replicate 1 = 1362; Renilla control light, replicate 2 = 3507.

After knock-down of Nepl14 [DRSC15631], the record shows firefly reporter light, replicate 1 = 15297; Renilla control light, replicate 1 = 12179. Silencing of Ythdf [DRSC16036] gave: firefly reporter light, replicate 1 = 15463; Renilla control light, replicate 1 = 14711. Depletion of Ythdf [DRSC16037] came out at: firefly reporter light, replicate 1 = 23217; Renilla control light, replicate 1 = 19929. CG33286 [DRSC11691] scored firefly reporter light, replicate 1 = 20240; Renilla control light, replicate 1 = 6802. Ravus [DRSC15126] scored firefly reporter light, replicate 1 = 15931; Renilla control light, replicate 1 = 2000. CG7135 [DRSC20026] scored firefly reporter light, replicate 1 = 15114; Renilla control light, replicate 1 = 10093.

Against RpL24 [DRSC03185], the entry reads firefly reporter light, replicate 1 = 3268; firefly reporter light, replicate 2 = 6502; Renilla control light, replicate 1 = 779; Renilla control light, replicate 2 = 1848. Depletion of CG14297 [DRSC14776] gave: firefly reporter light, replicate 1 = 9955; Renilla control light, replicate 1 = 1404. CG9062 [DRSC07327] scored firefly reporter light, replicate 1 = 7456; Renilla control light, replicate 1 = 2827.
